No constants are given. Whether binding was seen depends on the method and setting. Binding seen in cells or lysates may run through a third protein. A yes stands for co-enrichment or nearness to the bait. Other partners may have been found. For some assays here: No binding means not detected with the bait. Sequences can lack the tags named with a protein.

One experiment deals with T1, Sin3a-3xFLAG (mouse) (UniProt Q60520).
T1 sequence: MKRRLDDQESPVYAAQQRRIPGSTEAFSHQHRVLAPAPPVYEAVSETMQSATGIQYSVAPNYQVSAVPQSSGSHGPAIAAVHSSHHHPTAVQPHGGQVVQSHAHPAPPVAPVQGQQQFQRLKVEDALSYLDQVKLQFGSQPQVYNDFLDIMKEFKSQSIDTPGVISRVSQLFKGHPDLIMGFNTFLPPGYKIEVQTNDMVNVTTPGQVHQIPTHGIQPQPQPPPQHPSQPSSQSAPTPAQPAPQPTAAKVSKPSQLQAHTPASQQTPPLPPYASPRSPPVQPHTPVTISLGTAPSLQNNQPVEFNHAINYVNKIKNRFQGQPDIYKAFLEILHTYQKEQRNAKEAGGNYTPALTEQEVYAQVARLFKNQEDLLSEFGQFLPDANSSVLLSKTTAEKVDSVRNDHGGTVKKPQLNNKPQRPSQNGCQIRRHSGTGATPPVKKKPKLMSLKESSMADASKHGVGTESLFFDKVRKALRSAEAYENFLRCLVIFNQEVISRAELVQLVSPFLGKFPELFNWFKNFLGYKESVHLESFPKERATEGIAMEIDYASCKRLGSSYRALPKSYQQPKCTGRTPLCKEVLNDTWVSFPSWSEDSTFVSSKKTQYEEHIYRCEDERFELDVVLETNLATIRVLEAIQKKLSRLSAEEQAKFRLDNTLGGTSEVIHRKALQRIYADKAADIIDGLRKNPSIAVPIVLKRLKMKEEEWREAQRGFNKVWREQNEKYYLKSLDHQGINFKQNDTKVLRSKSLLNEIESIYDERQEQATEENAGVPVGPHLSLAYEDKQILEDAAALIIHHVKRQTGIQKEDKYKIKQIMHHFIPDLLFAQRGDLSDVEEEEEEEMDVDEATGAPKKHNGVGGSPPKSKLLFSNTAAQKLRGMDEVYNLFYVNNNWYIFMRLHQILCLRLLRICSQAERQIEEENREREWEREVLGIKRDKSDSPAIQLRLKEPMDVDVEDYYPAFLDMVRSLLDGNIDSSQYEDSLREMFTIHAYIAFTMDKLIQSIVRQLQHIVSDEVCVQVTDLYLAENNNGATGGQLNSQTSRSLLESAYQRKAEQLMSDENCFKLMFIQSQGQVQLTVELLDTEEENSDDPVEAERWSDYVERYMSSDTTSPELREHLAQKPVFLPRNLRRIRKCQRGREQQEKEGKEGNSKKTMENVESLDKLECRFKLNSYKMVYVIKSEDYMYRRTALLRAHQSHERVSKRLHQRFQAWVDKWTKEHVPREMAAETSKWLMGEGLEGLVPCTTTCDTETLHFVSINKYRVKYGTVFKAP
Description: affinity purification with mass spectrometry; anti-FLAG M2 resin, 4 h at 4 °C, with 13-15 mg nuclear extract of E14tg2a ES cells expressing Sin3a-3xFLAG or 3xFLAG alone; IP buffer 25 mM HEPES-KOH pH 7.6, 140 mM KCl, 10% glycerol, 0.1% Igepal CA-630; washes with 250 mM KCl; elution with 3x FLAG peptide; SDS-PAGE and LC-MS/MS; four independent pull downs.

Experiment [1] addresses T2, Sin3a-3xFLAG (mouse), Q60520.
T2 chain: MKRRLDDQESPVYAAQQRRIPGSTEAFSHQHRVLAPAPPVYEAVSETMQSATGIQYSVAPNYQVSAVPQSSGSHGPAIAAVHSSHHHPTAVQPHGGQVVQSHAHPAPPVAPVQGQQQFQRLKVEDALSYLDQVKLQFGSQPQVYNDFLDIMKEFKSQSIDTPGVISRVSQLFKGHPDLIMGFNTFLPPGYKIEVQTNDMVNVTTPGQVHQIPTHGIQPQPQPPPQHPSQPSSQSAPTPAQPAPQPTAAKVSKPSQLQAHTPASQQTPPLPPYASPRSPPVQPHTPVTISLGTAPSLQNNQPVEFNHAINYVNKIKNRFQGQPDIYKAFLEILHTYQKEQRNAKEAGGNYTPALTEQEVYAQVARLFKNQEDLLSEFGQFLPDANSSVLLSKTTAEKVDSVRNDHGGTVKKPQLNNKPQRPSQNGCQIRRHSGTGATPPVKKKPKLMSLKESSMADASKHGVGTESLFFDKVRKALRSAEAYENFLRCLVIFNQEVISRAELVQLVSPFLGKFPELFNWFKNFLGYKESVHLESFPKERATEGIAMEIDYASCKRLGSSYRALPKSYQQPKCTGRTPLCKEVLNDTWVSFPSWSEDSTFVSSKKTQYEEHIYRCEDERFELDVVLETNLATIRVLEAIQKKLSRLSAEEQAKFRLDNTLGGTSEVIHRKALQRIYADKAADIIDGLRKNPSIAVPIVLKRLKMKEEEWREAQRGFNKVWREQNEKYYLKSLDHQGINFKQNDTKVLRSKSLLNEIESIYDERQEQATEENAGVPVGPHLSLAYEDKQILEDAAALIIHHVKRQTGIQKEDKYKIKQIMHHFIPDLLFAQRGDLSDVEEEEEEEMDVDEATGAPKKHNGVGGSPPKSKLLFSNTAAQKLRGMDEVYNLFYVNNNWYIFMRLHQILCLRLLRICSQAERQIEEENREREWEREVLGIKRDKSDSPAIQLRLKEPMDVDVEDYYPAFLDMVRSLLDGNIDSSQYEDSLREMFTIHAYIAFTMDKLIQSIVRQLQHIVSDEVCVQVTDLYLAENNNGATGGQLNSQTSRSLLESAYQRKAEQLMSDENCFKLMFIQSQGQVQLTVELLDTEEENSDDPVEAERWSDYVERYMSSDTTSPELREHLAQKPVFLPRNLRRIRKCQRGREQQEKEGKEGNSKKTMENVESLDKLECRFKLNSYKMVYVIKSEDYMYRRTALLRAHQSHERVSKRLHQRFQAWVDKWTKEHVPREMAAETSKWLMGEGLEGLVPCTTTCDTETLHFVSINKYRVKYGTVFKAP
The experiment is described as above. The note with it: remark: other sources report otherwise.

B1: Suds3 (protein, UniProt Q8BR65 1-328)
chain: MSAAGLLAPAPAPAAAPAAPEYYPEDEEELESAEDDERSCRGRESDEDTEDASETDLAKHDEEDYVEMKEQMYQDKLASLKRQLQQLQEGTLQEYQKRMKKLDQQYRERIRNAELFLQLETEQVERNYIKEKKAAVKEFEDKKVELKENLIAELEEKKKMIENEKLTMELTGDSMEVKPIMTRKLRRRPNDPVPIPDKRRKPAPAQLNYLLTDEQIMEDLRTLNKLKSPKRPASPSSPEHLPATPAESPAQRFEARIEDGKLYYDKRWYHKSQAIYLESKDNQKLSCVISSVGANEIWVRKTSDSTKMRIYVGQLQRGLFVIRRRSAA
In the case of B1, the binding result in the experiment with Sin3a-3xFLAG (mouse) was “binds”.

B2: Sin3b, Q62141 1-1098 (protein)
chain: MAHAGSGGSAGRGFGGSRWGRSGSGGHEKLPVHVEDALTYLDQVKIRFGSDPATYNGFLEIMKEFKSQSIDTPGVIRRVSQLFHEHPDLIVGFNAFLPLGYRIDIPKNGKLNIQSPLSSQDNSHSHGDCGEDFKQMSYKEDRGQVPLESDSVEFNNAISYVNKIKTRFLDHPEIYRSFLEILHTYQKEQLHTKGRPFRGMSEEEVFTEVANLFRGQEDLLSEFGQFLPEAKRSLFTGNGSCEMNSGQKNEEKSLEHNKKRSRPSLLRPVSAPAKKKMKLRGTKDLSIAAVGKYGTLQEFSFFDKVRRVLKSQEVYENFLRCIALFNQELVSGSELLQLVSPFLGKFPELFAQFKSFLGVKELSFAPPMSDRSGDGISREIDYASCKRIGSSYRALPKTYQQPKCSGRTAICKEVLNDTWVSFPSWSEDSTFVSSKKTPYEEQLHRCEDERFELDVVLETNLATIRVLESVQKKLSRMAPEDQEKLRLDDCLGGTSEVIQRRAIHRIYGDKAPEVIESLKRNPATAVPVVLKRLKAKEEEWREAQQGFNKIWREQYEKAYLKSLDHQAVNFKQNDTKALRSKSLLNEIESVYDEHQEQHSEGRSAPSSEPHLIFVYEDRQILEDAAALISYYVKRQPAIQKEDQGTIRQLLHRFLPSLFFSQQCPGTSDDSADERDRDRDSAEPERRRPTDEKPPADASPEPPKVLDDVYSLFFANNNWYFFLRLHQTLCARLLKIYRQAQKQLLEHRREQEREQLLCEGRREKAADPAMELRLKQPSEVELEEYYPAFLDMVRSLLEGSIDPTQYEDTLREMFTIHAYIGFTMDKLVQNIARQLHHLVSDDVCLKVVELYLNEQQRGAAGGNLSSRCVRAARETSYQWKAERCMADENCFKVMFLQRRGQVIMTIELLDTEEAQTEDPVEVQHLARYVEQYVGSEGASSSSTEGFLLKPVFLQRNLKKFRRWQCEQVRAMRGEAKSSWKRLMGVESACDVDCRFRLGTHKMVFIVNSEDYMYRRGTLCRAKQVQPLVLLRHHRHFEEWHGRWLEDNVTVAAAGLVQDWLMGEEEEDMVPCKTLCETAHVHGLPVTRYRVQYSRRPASP
For B2, the binding result in experiment [1] is reported as “no binding”.

These data come from article PMC3334623.
